Laboratory results: PubChem BioAssay AID1259254 (NCATS, 2017)
Here is one part, drawn at random, of about 59,000 deposited reagents. About 1,550 of them (2.6%) count as active. 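G2 share is only a proxy for re-replication; each gene was hit by three separate siRNAs, and active genes were retested.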 Reagents against one gene are numbered here. Further read-outs or replicates are left out here. Reagent sequences are not shown. The record does not give: the amount of reagent.

Screen: 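Gene knock-downs that lead to re-replication, shown by excess G2 DNA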 (primary screen)
Cells: human HCT116 colorectal cancer cells
Reagent: single siRNA against human genes
Duration: 3 days
Measurement: 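Imaged Hoechst DNA stain sorts each cell into a cycle phase by DNA amount; per plate, G2 fraction set to 0% for non-targeting and 100% for GMNN siRNA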
Scale: G2 robust z-score: higher = more G2 cells, more excess DNA replication
Call rule: 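Active siRNAs have a G2 robust z of 5 or more median absolute deviations over the median, which in these data means about 38% or higher of GMNN control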

G2 robust z-score, by gene and reagent
RNF125 (ring finger protein 125): #1 -0.34 inactive; #2 3.82 inactive; #3 0.823 inactive
SMARCC2 (SWI/SNF related BAF chromatin remodeling complex subunit C2): #1 -0.378 inactive; #2 -0.791 inactive; #3 1.53 inactive
KIF27 (kinesin family member 27): #1 -0.927 inactive; #2 0.0517 inactive; #3 -0.633 inactive
TM2D1 (TM2 domain containing 1): #1 -0.742 inactive; #2 -0.835 inactive; #3 0.448 inactive
UFM1 (ubiquitin fold modifier 1): #1 3.93 inactive; #2 2.08 inactive; #3 1.52 inactive
TFDP1 (transcription factor Dp-1): #1 0.991 inactive; #2 -1.07 inactive; #3 -0.853 inactive
RPL23AP74 (ribosomal protein L23a pseudogene 74): #1 1.03 inactive; #2 3.36 inactive; #3 0.86 inactive
ZNF157 (zinc finger protein 157): #1 -0.0548 inactive; #2 1.17 inactive; #3 0.237 inactive
PHF20L1 (PHD finger protein 20 like 1): #1 3.39 inactive; #2 -1.53 inactive; #3 -0.349 inactive
ANKZF1 (ankyrin repeat and zinc finger peptidyl tRNA hydrolase 1): #1 1.55 inactive; #2 -0.604 inactive; #3 0.768 inactive
LGALSL (galectin like): #1 0.825 inactive; #2 3.33 inactive; #3 0.0854 inactive
RNF182 (ring finger protein 182): #1 0.452 inactive; #2 -0.546 inactive; #3 -0.0351 inactive
RPL10L (ribosomal protein L10 like): #1 4.83 inactive; #2 1.26 inactive; #3 -0.494 inactive
STAT2 (signal transducer and activator of transcription 2): #1 -0.0118 inactive; #2 -0.717 inactive; #3 0.313 inactive
LGALS14 (galectin 14): #1 -0.641 inactive; #2 -0.272 inactive; #3 -1 inactive
THAP12 (THAP domain containing 12): #1 1.64 inactive; #2 -0.683 inactive; #3 3.94 inactive
OR7A10 (olfactory receptor family 7 subfamily A member 10): #1 2.76 inactive; #2 -0.383 inactive; #3 -0.225 inactive
MRGPRX4 (MAS related GPR family member X4): #1 -1.12 inactive; #2 0.755 inactive; #3 -1.16 inactive
KRTAP1-3 (keratin associated protein 1-3): #1 -0.199 inactive; #2 1.87 inactive; #3 -0.801 inactive
CLEC18A (C-type lectin domain family 18 member A): #1 1.23 inactive; #2 0.236 inactive; #3 0.49 inactive
CLIP4 (CAP-Gly domain containing linker protein family member 4): #1 -0.0688 inactive; #2 -0.102 inactive; #3 -0.255 inactive
ZBTB6 (zinc finger and BTB domain containing 6): #1 -0.83 inactive; #2 0.205 inactive; #3 -0.554 inactive
SAR1AP1 (secretion associated Ras related GTPase 1A pseudogene 1): #1 -0.611 inactive; #2 -0.452 inactive; #3 0.0955 inactive
